Source: publication doi:10.1101/765990 (bioRxiv, 2019)
These are yes or no findings as the source states them, for the method shown. For some assays here: Binding seen in cells or lysates may run through a third protein. Some binding calls cover weakened binding; strength is not graded here. For some assays here: Where a sequence is shown, tags or fusion partners need not be part of it.

Protein sequences, listed by entry. Tags and fused reporters are not part of them. Lines headed by an entry give the natural chain unless they say otherwise; changes in a name come on top.
UniProt Q01590: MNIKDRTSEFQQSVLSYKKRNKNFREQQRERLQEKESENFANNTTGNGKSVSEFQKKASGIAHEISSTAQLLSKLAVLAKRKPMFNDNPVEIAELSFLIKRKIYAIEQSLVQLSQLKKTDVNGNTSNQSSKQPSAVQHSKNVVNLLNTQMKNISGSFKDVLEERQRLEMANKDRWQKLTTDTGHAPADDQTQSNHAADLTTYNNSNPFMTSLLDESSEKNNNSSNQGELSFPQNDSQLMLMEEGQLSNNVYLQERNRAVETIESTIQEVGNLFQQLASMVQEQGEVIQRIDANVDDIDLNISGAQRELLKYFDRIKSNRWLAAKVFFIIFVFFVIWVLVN

Tests used:
[1] = target: Sed5p SNARE-motif (amino acids 211-320) L272P (budding yeast) (UniProt Q01590); assay: native gel or EMSA
[2] = target: Sed5p SNARE-motif (amino acids 211-320) L276P (budding yeast) (UniProt Q01590); assay: native gel or EMSA
[3] = target: Sed5p (BiFC fusion in yeast cells) (budding yeast) (UniProt Q01590); assay: split reporter

binding [1]	binding [2]	binding [3]	Molecule
–	–	binds	sly1p (L140K) (BiFC fusion in yeast cells) (protein, UniProt P22213 1-666) MAVEEIASRKDISLRDMQISAILKMLFLNKDLNNNDNITTITDDIFNQQEIIWKVLILDIKSTATISSVLRVNDLLKAGITVHSLIKQDRSPLPDVPAIYFVSPTKENIDIIVNDLKSDKYSEFYINFTSSLPRNLLEDKAQQVSITGKSDKIKQVYDQYLDFIVTEPELFSLEISNAYLTLNDPKTTEEEITGLCANIADGLFNTVLTINSIPIIRAAKGGPAEIIAEKLGTKLRDFVINTNSSSTSTLQGNDSLERGVLIILDRNIDFASMFSHSWIYQCMVFDIFKLSRNTVTIPLESKENGTDNTTAKPLATKKYDIEPNDFFWMENSHLPFPEAAENVEAALNTYKEEAAEITRKTGVTNISDLDPNSNNDTVQIQEVVKKLPELTAKKNTIDTHMNIFAALLSQLESKSLDTFFEVEQDPGSTKTRSRFLDILKDGKTNNLEDKLRSFIVLYLTSTTGLPKDFVQNVENYFKENDYDINALKYVYKLREFMQLSNMSLQNKSLEDGSDSAFKPSNLTLSGIYGLTEGKLQGGVGSLISGIKKLLPEKKTIPITNVVDAIMDPLNSSQKNLETTDSYLYIDPKITRGSHTRKPKRQSYNKSLVFVVGGGNYLEYQNLQEWAHSQLHNPKKVMYGSTAITTPAEFLNEISRLGASNSSNNDA
–	–	no binding	sly1p (L140K, I153K) (BiFC fusion in yeast cells) (protein, UniProt P22213 1-666) MAVEEIASRKDISLRDMQISAILKMLFLNKDLNNNDNITTITDDIFNQQEIIWKVLILDIKSTATISSVLRVNDLLKAGITVHSLIKQDRSPLPDVPAIYFVSPTKENIDIIVNDLKSDKYSEFYINFTSSLPRNLLEDKAQQVSITGKSDKKKQVYDQYLDFIVTEPELFSLEISNAYLTLNDPKTTEEEITGLCANIADGLFNTVLTINSIPIIRAAKGGPAEIIAEKLGTKLRDFVINTNSSSTSTLQGNDSLERGVLIILDRNIDFASMFSHSWIYQCMVFDIFKLSRNTVTIPLESKENGTDNTTAKPLATKKYDIEPNDFFWMENSHLPFPEAAENVEAALNTYKEEAAEITRKTGVTNISDLDPNSNNDTVQIQEVVKKLPELTAKKNTIDTHMNIFAALLSQLESKSLDTFFEVEQDPGSTKTRSRFLDILKDGKTNNLEDKLRSFIVLYLTSTTGLPKDFVQNVENYFKENDYDINALKYVYKLREFMQLSNMSLQNKSLEDGSDSAFKPSNLTLSGIYGLTEGKLQGGVGSLISGIKKLLPEKKTIPITNVVDAIMDPLNSSQKNLETTDSYLYIDPKITRGSHTRKPKRQSYNKSLVFVVGGGNYLEYQNLQEWAHSQLHNPKKVMYGSTAITTPAEFLNEISRLGASNSSNNDA

More lines, now with the values behind:

Molecule	binding [1]	binding [2]	binding [3]
Sed5p Habc domain (amino acids 1-210) (from UniProt Q01590 1-210) (domain or fragment)	no binding	no binding	–
Sly1p (BiFC fusion in yeast cells) (protein, UniProt P22213 1-666) MAVEEIASRKDISLRDMQISAILKMLFLNKDLNNNDNITTITDDIFNQQEIIWKVLILDIKSTATISSVLRVNDLLKAGITVHSLIKQDRSPLPDVPAIYFVSPTKENIDIIVNDLKSDKYSEFYINFTSSLPRNLLEDLAQQVSITGKSDKIKQVYDQYLDFIVTEPELFSLEISNAYLTLNDPKTTEEEITGLCANIADGLFNTVLTINSIPIIRAAKGGPAEIIAEKLGTKLRDFVINTNSSSTSTLQGNDSLERGVLIILDRNIDFASMFSHSWIYQCMVFDIFKLSRNTVTIPLESKENGTDNTTAKPLATKKYDIEPNDFFWMENSHLPFPEAAENVEAALNTYKEEAAEITRKTGVTNISDLDPNSNNDTVQIQEVVKKLPELTAKKNTIDTHMNIFAALLSQLESKSLDTFFEVEQDPGSTKTRSRFLDILKDGKTNNLEDKLRSFIVLYLTSTTGLPKDFVQNVENYFKENDYDINALKYVYKLREFMQLSNMSLQNKSLEDGSDSAFKPSNLTLSGIYGLTEGKLQGGVGSLISGIKKLLPEKKTIPITNVVDAIMDPLNSSQKNLETTDSYLYIDPKITRGSHTRKPKRQSYNKSLVFVVGGGNYLEYQNLQEWAHSQLHNPKKVMYGSTAITTPAEFLNEISRLGASNSSNNDA	–	–	binds
